No constants are given. Whether binding was seen depends on the method and setting. Binding seen in cells or lysates may run through a third protein. Here binding means that the protein was enriched with, or labelled near, the bait; the list need not be complete.
Biological target: tandem StrepII-Flag-tagged FAM183b (4 exon variant) (mouse) (UniProt Q5NC57)
Assay: affinity purification with mass spectrometry; N- and C-terminally tandem StrepII-Flag-tagged FAM183b transiently expressed in HEK293T cells; FAM183b complexes isolated and analysed by LC-MS/MS

Chains of the proteins cited; added tags and fusions are not shown. Lines headed by an entry give the natural chain unless they say otherwise; changes in a name come on top.
UniProt Q5NC57: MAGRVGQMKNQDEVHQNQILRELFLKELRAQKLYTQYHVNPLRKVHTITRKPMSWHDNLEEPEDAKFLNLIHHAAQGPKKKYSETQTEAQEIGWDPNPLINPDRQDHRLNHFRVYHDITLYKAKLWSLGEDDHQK

binding: binds
B1: NUP93 (endogenous, HEK293T) (protein, UniProt Q8N1F7 1-819)
chain: MDTEGFGELLQQAEQLAAETEGISELPHVERNLQEIQQAGERLRSRTLTRTSQETADVKASVLLGSRGLDISHISQRLESLSAATTFEPLEPVKDTDIQGFLKNEKDNALLSAIEESRKRTFGMAEEYHRESMLVEWEQVKQRILHTLLASGEDALDFTQESEPSYISDVGPPGRSSLDNIEMAYARQIYIYNEKIVNGHLQPNLVDLCASVAELDDKSISDMWTMVKQMTDVLLTPATDALKNRSSVEVRMEFVRQALAYLEQSYKNYTLVTVFGNLHQAQLGGVPGTYQLVRSFLNIKLPAPLPGLQDGEVEGHPVWALIYYCMRCGDLLAASQVVNRAQHQLGEFKTWFQEYMNSKDRRLSPATENKLRLHYRRALRNNTDPYKRAVYCIIGRCDVTDNQSEVADKTEDYLWLKLNQVCFDDDGTSSPQDRLTLSQFQKQLLEDYGESHFTVNQQPFLYFQVLFLTAQFEAAVAFLFRMERLRCHAVHVALVLFELKLLLKSSGQSAQLLSHEPGDPPCLRRLNFVRLLMLYTRKFESTDPREALQYFYFLRDEKDSQGENMFLRCVSELVIESREFDMILGKLENDGSRKPGVIDKFTSDTKPIINKVASVAENKGLFEEAAKLYDLAKNADKVLELMNKLLSPVVPQISAPQSNKERLKNMALSIAERYRAQGISANKFVDSTFYLLLDLITFFDEYHSGHIDRAFDIIERLKLVPLNQESVEERVAAFRNFSDEIRHNLSEVLLATMNILFTQFKRLKGTSPSSSSRPQRVIEDRDSQLRSQARTLITFAGMIPYRTSGDTNARLVQMEVLMN

Reference: publication PMC6168554
